# Measurements from PubChem BioAssay AID1671190 (National Center for Advancing Translational Sciences (NCATS), 2021).
# The chains behind the UniProt entries cited, without tags or fusion partners.
# UniProt P18054, whole entry, looked up: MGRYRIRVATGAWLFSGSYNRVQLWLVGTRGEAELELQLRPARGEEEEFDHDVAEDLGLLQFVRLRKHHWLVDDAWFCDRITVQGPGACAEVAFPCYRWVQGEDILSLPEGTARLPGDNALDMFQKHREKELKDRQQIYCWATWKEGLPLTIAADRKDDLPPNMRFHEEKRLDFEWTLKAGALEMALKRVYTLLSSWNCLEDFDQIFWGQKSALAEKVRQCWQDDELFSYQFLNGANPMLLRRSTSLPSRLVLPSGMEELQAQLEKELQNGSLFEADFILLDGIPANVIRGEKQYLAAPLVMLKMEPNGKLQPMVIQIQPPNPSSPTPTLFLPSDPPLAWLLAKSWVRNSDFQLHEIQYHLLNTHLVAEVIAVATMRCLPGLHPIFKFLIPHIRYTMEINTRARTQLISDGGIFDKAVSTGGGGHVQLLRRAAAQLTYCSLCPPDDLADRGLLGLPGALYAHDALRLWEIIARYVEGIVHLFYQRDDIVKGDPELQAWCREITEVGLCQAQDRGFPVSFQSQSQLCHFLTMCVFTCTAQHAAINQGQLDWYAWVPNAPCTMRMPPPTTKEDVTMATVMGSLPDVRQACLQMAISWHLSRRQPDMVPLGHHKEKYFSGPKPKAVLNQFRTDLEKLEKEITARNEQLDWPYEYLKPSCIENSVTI
# Screen size: about 580,000 compounds; about 6,100 (1.1%) were called active. This list was built around the results that the source calls inconclusive (neither active nor inactive); the mix of calls is not that of the screen. The call rests on the fitted dose curve; in most records, active means well fitted inhibition curve with a large enough effect; inconclusive means small, poorly fitted or top-dose-only effect, or another doubt; inactive means no such curve, though single readings can be large or run the other way. Where the call is inconclusive, the potency comes from a doubtful curve fit.
# Target: Polyunsaturated fatty acid lipoxygenase ALOX12 (Homo sapiens) (UniProt P18054)
# Experiment: Primary qHTS assay for inhibitors of human arachidonate 12S-lipoxygenase (ALOX12): Round 2
# Settings: purified 12hLO, xylenol orange hydroperoxide absorbance; activity change, negative = inhibition: at 108 µM (top of the series) unless noted
# In short: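 Purified human 12hLO (150 nM final) in 25 mM Hepes, 0.01% Triton X-100, pH 7.0 was preincubated 15 min at room temperature with compound. Then 40 uM arachidonic acid was added, 30 min. Hydroperoxide was read by Fe-XO absorbance ratio 573/405 nm.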
# On the % scale 0 is the no-effect control and ±100 the full control effect; potency means the concentration at half of the fitted maximal effect.
SMILES,"activity change, negative = inhibition",Potency
Cc1ccsc1C(=O)N1CCC(N2C(=O)C(OCC3CC3)C23CCCCC3)CC1 (configuration not stated),inactive: 36.6%,
Nc1c2c(nc3ccccc13)N(c1ccccc1)CC2,,"inconclusive: 0.708 µM [inhibitor, full curve, poor fit]"
CCCCCCCN1C(Nc2ccccc2)=NC[C@@H]1C,,"inconclusive: 2.82 µM [inhibitor, full curve]"
Cc1ccc(-c2noc([C@@H]3Cc4nc[nH]c4CN3C(=O)Nc3ccccc3)n2)cc1,inactive: 11.7% [at 176 µM],
CN1C(=O)/C(=C/C=C2\SCCN2C)N(C)C1=S,,"inconclusive: 50.1 µM [inhibitor, partial curve, poor fit]"
Cc1noc(/C=C/c2cccs2)c1S(=O)(=O)N1CCC(C(=O)NCCCN2CCCC(C)C2)CC1 (configuration not stated),inactive: -12.1%,
Cc1cccc(NC(=O)CCCN2C(=S)NC(C)(C)CC2C)c1C (configuration not stated),inactive: -20.7%,
CCOc1cccc2cc(-c3cn4cc(C)ccc4n3)c(=O)oc12,inactive: 0%,
Cc1cccc(Oc2cc(N)cc([N+](=O)[O-])c2)c1,,"inconclusive: 50.1 µM [inhibitor, partial curve, poor fit]"
C=CCN1C(c2cccc(C(F)(F)F)c2)=CS/C1=C(/C#N)c1nnc(N2CCOCC2)n1-c1ccccc1,inconclusive: -32.6% [inhibitor],
C=CCN=C1NC(c2ccc(Cl)cc2)C(C(=O)OC)=C(C)N1C (configuration not stated),,"inconclusive: 63.1 µM [inhibitor, partial curve, poor fit]"
Cc1ccc(C(=O)OCC(=O)NCc2ccco2)s1,,"inconclusive: 50.1 µM [inhibitor, partial curve, poor fit]"
CC(=O)NC(CCc1ccc(Cl)c(Cl)c1)c1cccc(O)c(=O)c1 (configuration not stated),,active: 39.8 µM
CCCCCCCN1C2=NCCCN2c2ccccc21,,"inconclusive: 39.8 µM [inhibitor, partial curve, poor fit]"
O=S(=O)(c1ccc(Cl)cc1)N1CCC(O)(CN2CCN(Cc3ccccc3)CC2)CC1,,"inconclusive: 10 µM [inhibitor, partial curve, poor fit]"
CCOc1ccccc1CNC(=O)c1ccc(NC(=O)N2CCSc3ncccc32)cc1,inactive: -27.1%,
CC(C)(C)n1nnnc1C(c1ccccc1)N1CCN(C/C=C/c2ccccc2)CC1 (configuration not stated),,"inconclusive: 89.1 µM [inhibitor, single point]"
O=C(O)C[C@@H]1CCN(C(=O)c2cccs2)C[C@@H]1CCN1C[C@@H]2C[C@H](C1)c1cccc(=O)n1C2,,"inconclusive: 15.8 µM [inhibitor, partial curve]"
O=C(NCCCN1CCOCC1)c1cc(-c2cccs2)on1,inactive: 4.62%,
COc1ccc(OC)c(CNC(=O)Cn2nc(C)c3nn(-c4ccc(Cl)cc4)c(C)c3c2=O)c1,,"inconclusive: 112 µM [inhibitor, partial curve, poor fit]"
C=CCNC(=O)[C@@H]1CCCN1[C@@H](C(=O)NC)c1ccccc1OC,,"inconclusive: 3.98 µM [inhibitor, full curve, poor fit]"
CCn1c(=O)c2c(cc(C)n2C)n(CC(=O)Nc2ccccc2C)c1=O,inactive: 24.1%,
CCOC(=O)C1CCCN(C(=O)c2ccc(Cn3c(=S)[nH]c4cc(C(=O)OC)ccc4c3=O)cc2)C1 (configuration not stated),inactive: -7.06%,

# Exported bar-delimited: 17 of the compounds above
SMILES | activity change, negative = inhibition | Potency
Cc1ccsc1C(=O)N1CCC(N2C(=O)C(OCC3CC3)C23CCCCC3)CC1 (configuration not stated) | inactive: 36.6% | 
Nc1c2c(nc3ccccc13)N(c1ccccc1)CC2 |  | inconclusive: 0.708 µM [inhibitor, full curve, poor fit]
CCCCCCCN1C(Nc2ccccc2)=NC[C@@H]1C |  | inconclusive: 2.82 µM [inhibitor, full curve]
Cc1noc(/C=C/c2cccs2)c1S(=O)(=O)N1CCC(C(=O)NCCCN2CCCC(C)C2)CC1 (configuration not stated) | inactive: -12.1% | 
Cc1cccc(NC(=O)CCCN2C(=S)NC(C)(C)CC2C)c1C (configuration not stated) | inactive: -20.7% | 
CCOc1cccc2cc(-c3cn4cc(C)ccc4n3)c(=O)oc12 | inactive: 0% | 
Cc1cccc(Oc2cc(N)cc([N+](=O)[O-])c2)c1 |  | inconclusive: 50.1 µM [inhibitor, partial curve, poor fit]
C=CCN1C(c2cccc(C(F)(F)F)c2)=CS/C1=C(/C#N)c1nnc(N2CCOCC2)n1-c1ccccc1 | inconclusive: -32.6% [inhibitor] | 
CC(=O)NC(CCc1ccc(Cl)c(Cl)c1)c1cccc(O)c(=O)c1 (configuration not stated) |  | active: 39.8 µM
O=S(=O)(c1ccc(Cl)cc1)N1CCC(O)(CN2CCN(Cc3ccccc3)CC2)CC1 |  | inconclusive: 10 µM [inhibitor, partial curve, poor fit]
CCOc1ccccc1CNC(=O)c1ccc(NC(=O)N2CCSc3ncccc32)cc1 | inactive: -27.1% | 
CC(C)(C)n1nnnc1C(c1ccccc1)N1CCN(C/C=C/c2ccccc2)CC1 (configuration not stated) |  | inconclusive: 89.1 µM [inhibitor, single point]
O=C(O)C[C@@H]1CCN(C(=O)c2cccs2)C[C@@H]1CCN1C[C@@H]2C[C@H](C1)c1cccc(=O)n1C2 |  | inconclusive: 15.8 µM [inhibitor, partial curve]
O=C(NCCCN1CCOCC1)c1cc(-c2cccs2)on1 | inactive: 4.62% | 
COc1ccc(OC)c(CNC(=O)Cn2nc(C)c3nn(-c4ccc(Cl)cc4)c(C)c3c2=O)c1 |  | inconclusive: 112 µM [inhibitor, partial curve, poor fit]
C=CCNC(=O)[C@@H]1CCCN1[C@@H](C(=O)NC)c1ccccc1OC |  | inconclusive: 3.98 µM [inhibitor, full curve, poor fit]
CCn1c(=O)c2c(cc(C)n2C)n(CC(=O)Nc2ccccc2C)c1=O | inactive: 24.1% | 

# Continued.

SMILES,"activity change, negative = inhibition",Potency
Cc1cccc(OCc2nc(C#N)c(NCCc3ccccc3)o2)c1,,"inconclusive: 15.8 µM [inhibitor, full curve]"
O=C1C(=C2CCc3ccccc32)Cc2ccccc21,,"inconclusive: 39.8 µM [inhibitor, partial curve, poor fit]"
COc1ccc2c(Sc3ccccc3)c(C(=O)NCCCN3CCCCC3)[nH]c2c1,,"inconclusive: 70.8 µM [inhibitor, single point]"
Cc1ccc(CNCCN2CCCC2)cc1,,"inconclusive: 3.98 µM [inhibitor, full curve]"
CCC(C)Sc1nc2c(c(=O)n(C)c(=O)n2C)n1Cc1ccccc1Cl (configuration not stated),inactive: -1.5%,
CCc1ccccc1NC(=O)Nc1nnc(N(C)Cc2ccccc2)s1,,"inconclusive: 50.1 µM [inhibitor, full curve, poor fit]"
Oc1ccc2ccccc2c1CNc1ccccc1,,"inconclusive: 3.16 µM [inhibitor, full curve, poor fit]"
Cc1ccc(NC(=O)Cc2nc(-c3ccccc3)oc2C)nc1,,"inconclusive: 56.2 µM [inhibitor, single point]"
COc1ccc(/C=N/NC(=O)c2ccco2)cc1OCc1ccccc1,,"inconclusive: 100 µM [inhibitor, single point]"
Cc1noc(C)c1-c1nc(NCc2ccccc2)c2ccccc2n1,,"inconclusive: 56.2 µM [inhibitor, partial curve, poor fit]"
CCOC(=O)C1CCN(Cc2cc(=O)oc3c(C)c(C)ccc23)CC1,,"inconclusive: 35.5 µM [inhibitor, single point]"
COCC1CN(C(C)=O)CC12CCN(Cc1cccc(Br)c1)CC2 (configuration not stated),,"inconclusive: 44.7 µM [inhibitor, partial curve]"
CCCc1nc2cc(C)c(Br)c(C)n2c1Cc1ccccc1OC,,"inconclusive: 0.199 µM [inhibitor, full curve, poor fit]"
CCN(CC)CCN(C(=O)c1cc2c(ccc3ccccc32)oc1=O)c1nc2cc3c(cc2s1)OCCO3,,"inconclusive: 89.1 µM [inhibitor, partial curve, poor fit]"
CCOC(=O)N1CCN(CC(O)c2ccccc2)CC1 (configuration not stated),inactive: -13.2%,
CCOC(=O)C1=C(C)NC(=O)NC1c1ccc(C(=O)OC)cc1 (configuration not stated),inactive: 7.06%,
O=C(NCc1ccco1)c1c(F)c(F)c(F)c(C(=O)NCc2ccco2)c1F,inactive: 66.5%,
O=C(Cc1ccccc1)NCCn1ccc2ccccc21,,"inconclusive: 100 µM [inhibitor, single point]"
Cc1ccsc1/C=N/Nc1nc(=O)[nH]nc1C,inactive: -1.18%,
CC(NC(=O)c1cncc(Br)c1)C12CC3CC(CC(C3)C1)C2 (configuration not stated),inactive: -2.09%,
CCN1CCN(c2ccc(S(=O)(=O)N3CCCCC3)cc2NC(=O)COc2ccccc2)CC1,,"inconclusive: 31.6 µM [inhibitor, single point]"
CC(=O)N(C)c1ccc(N=Nc2ccc3ncccc3c2)cc1,inactive: -19.2%,
CCCc1nc2ccccc2c(C(=O)OCC(=O)NC(=O)NC)c1CC,,"inconclusive: 12.6 µM [inhibitor, partial curve, poor fit]"

SMILES,"activity change, negative = inhibition",Potency
COc1ccc(O)c(C(=O)c2cc(C#N)c(=O)n(Cc3ccccc3)c2)c1,,"inconclusive: 0.794 µM [inhibitor, full curve, poor fit]"
COc1ccc(C(=O)COC(=O)c2cc(Cl)ccc2Cl)c(OC)c1,,"inconclusive: 20 µM [inhibitor, full curve, poor fit]"
O=C(Cc1ccccc1Cl)N1CC=C(c2c[nH]c3ncccc23)CC1,,"inconclusive: 89.1 µM [inhibitor, single point]"
CCC(C(=O)Nc1ccc(F)cc1F)n1nc(-c2ccc(C)cc2)ccc1=O (configuration not stated),,"inconclusive: 10 µM [inhibitor, full curve, poor fit]"
CCCCCc1ccnc(CC(=O)c2ccc(OC)cc2)c1,,"inconclusive: 35.5 µM [inhibitor, partial curve]"
COc1ccc(S(=O)(=O)NCC2CCCN(Cc3ccccc3Cl)C2)cc1 (configuration not stated),inconclusive: -32.4% [inhibitor],
Cc1[nH]n(-c2ccccc2)c(=O)c1/C=N/NC(=O)c1ccoc1C,,"inconclusive: 50.1 µM [inhibitor, partial curve]"
FC(F)(F)c1ccccc1-c1nc(Nc2ccncc2)c2ccccc2n1,,"inconclusive: 44.7 µM [inhibitor, partial curve, poor fit]"
COc1ccc(-c2cc(N3CCCC(NC(=O)c4ccc(OC)cc4OC)C3)n[nH]2)cc1 (configuration not stated),inactive: 35.8%,
CN1C[C@@H](NS(=O)(=O)Cc2ccccc2)C[C@H]1c1nc(-c2ccc3c(c2)OCO3)no1,,"inconclusive: 15.8 µM [inhibitor, full curve]"
COC(=O)[C@H](CC(C)C)NC(=O)/C=C/[C@H]1O[C@@H](n2cc(C)c(=O)[nH]c2=O)C[C@@H]1O,,"inconclusive: 79.4 µM [inhibitor, partial curve, poor fit]"
CCNC(=S)NNC(=O)c1cc(-c2cccc(C)c2)nc2ccccc12,,"inconclusive: 39.8 µM [inhibitor, partial curve, poor fit]"
O=C(NC1CCCCC1)N[C@H]1[C@H](O)[C@@H](N2CCN(c3ccccc3)CC2)[C@@H]2OC[C@H]1O2,,"inconclusive: 56.2 µM [inhibitor, single point]"
Cc1oc(-c2cccs2)nc1CC(=O)N(Cc1ccc2c(c1)OCO2)C1CCCC1,,"inconclusive: 44.7 µM [inhibitor, partial curve, poor fit]"
CCn1c2c(c(=O)[nH]c1=O)C(c1ccc(C)cc1)C1=C(COC1=O)N2 (configuration not stated),,"inconclusive: 70.8 µM [inhibitor, partial curve, poor fit]"
Cc1ccccc1-n1c(C)cc(/C=N/Nc2ccc([N+](=O)[O-])cn2)c1C,inactive: 11.4%,
Cc1ccc(CNC(=O)c2ccc3c(c2)N(Cc2ccccc2)C(=O)c2ccccc2S3(=O)=O)cc1,,"inconclusive: 8.91 µM [inhibitor, partial curve, poor fit]"
CC(OC(=O)/C=C/c1ccc2ccccc2n1)C(=O)NC1(C#N)CCCCC1 (configuration not stated),inactive: -21.4%,
OC1(c2csc(CN3CCOCC3)n2)CCN(C2CCCC2)CC1,inactive: -4.03% [at 176 µM],
CCc1ccc(C(=O)NC(=S)Nc2ccc3c(c2)OCCO3)cc1,,active: 14.1 µM
O=C(CS(=O)(=O)c1ccc(Br)cc1)c1ccccc1,,"inconclusive: 39.8 µM [inhibitor, partial curve, poor fit]"
